# This is one part of the list.
# Assays:
# Experiment in all cases: glycan array binding signal (z-score within array); higher = stronger binding
# Conditions in all cases: glycan notation: IUPAC condensed, linker removed
# [1] = target: Neu5Ac(a2-6)Gal
# How it was run: (§1)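 Glycan array data came from 3228 arrays in the Consortium for Functional Glycomics database, and only arrays with an available protein sequence were kept. Glycan names were put into IUPAC-condensed notation, and columns mapping to the same glycan were averaged. The binding signal is a within-array Z-score, averaged across arrays of one protein sequence run at different concentrations or buffers and across linkers. A negative Z-score can be read as non-binding.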
# [2] = target: Neu5Ac(a2-6)Gal(b1-3)GlcNAc(b1-3)[Gal(b1-4)GlcNAc(b1-6)]Gal(b1-4)Glc
# How it was run: as §1
# [3] = target: Neu5Ac(a2-6)Gal(b1-4)Glc
# How it was run: as §1
# [4] = target: Neu5Ac(a2-6)Gal(b1-4)GlcNAc
# How it was run: as §1
# [5] = target: Neu5Ac(a2-6)Gal(b1-4)GlcNAc(b1-2)Man
# How it was run: as §1
# [6] = target: Neu5Ac(a2-6)Gal(b1-4)GlcNAc(b1-2)Man(a1-3)Man(b1-4)GlcNAc(b1-4)GlcNAc
# How it was run: as §1
# [7] = target: Neu5Ac(a2-6)Gal(b1-4)GlcNAc(b1-2)Man(a1-3)[Gal(b1-4)GlcNAc(b1-2)Man(a1-6)]Man(b1-4)GlcNAc(b1-4)GlcNAc
# How it was run: as §1
# [8] = target: Neu5Ac(a2-6)Gal(b1-4)GlcNAc(b1-2)Man(a1-3)[GlcNAc(b1-2)Man(a1-6)]Man(b1-4)GlcNAc(b1-4)GlcNAc
# How it was run: as §1
# [9] = target: Neu5Ac(a2-6)Gal(b1-4)GlcNAc(b1-2)Man(a1-3)[GlcNAc(b1-4)][Neu5Ac(a2-6)Gal(b1-4)GlcNAc(b1-2)Man(a1-6)]Man(b1-4)GlcNAc(b1-4)GlcNAc
# How it was run: as §1
# [10] = target: Neu5Ac(a2-6)Gal(b1-4)GlcNAc(b1-2)Man(a1-3)[Man(a1-6)]Man(b1-4)GlcNAc(b1-4)GlcNAc
# How it was run: as §1
# [11] = target: Neu5Ac(a2-6)Gal(b1-4)GlcNAc(b1-2)Man(a1-3)[Neu5Ac(a2-3)Gal(b1-4)GlcNAc(b1-2)Man(a1-6)]Man(b1-4)GlcNAc(b1-4)GlcNAc
# How it was run: as §1
# [12] = target: Neu5Ac(a2-6)Gal(b1-4)GlcNAc(b1-2)Man(a1-3)[Neu5Ac(a2-6)Gal(b1-4)GlcNAc(b1-2)Man(a1-6)]Man(b1-4)GlcNAc(b1-4)GlcNAc
# How it was run: as §1
# [13] = target: Neu5Ac(a2-6)Gal(b1-4)GlcNAc(b1-2)Man(a1-3)[Neu5Ac(a2-6)Gal(b1-4)GlcNAc(b1-2)Man(a1-6)]Man(b1-4)GlcNAc(b1-4)[Fuc(a1-6)]GlcNAc
# How it was run: as §1
# [14] = target: Neu5Ac(a2-6)Gal(b1-4)GlcNAc(b1-2)Man(a1-6)Man(b1-4)GlcNAc(b1-4)GlcNAc
# How it was run: as §1
# [15] = target: Neu5Ac(a2-6)Gal(b1-4)GlcNAc(b1-2)Man(a1-6)[Gal(b1-4)GlcNAc(b1-2)Man(a1-3)]Man(b1-4)GlcNAc(b1-4)GlcNAc
# How it was run: as §1
# [16] = target: Neu5Ac(a2-6)Gal(b1-4)GlcNAc(b1-2)Man(a1-6)[GlcNAc(b1-2)Man(a1-3)]Man(b1-4)GlcNAc(b1-4)GlcNAc
# How it was run: as §1
# [17] = target: Neu5Ac(a2-6)Gal(b1-4)GlcNAc(b1-2)Man(a1-6)[Man(a1-3)]Man(b1-4)GlcNAc(b1-4)GlcNAc
# How it was run: as §1
# [18] = target: Neu5Ac(a2-6)Gal(b1-4)GlcNAc(b1-2)[Neu5Ac(a2-6)Gal(b1-4)GlcNAc(b1-4)]Man(a1-3)[GlcNAc(b1-4)][Neu5Ac(a2-6)Gal(b1-4)GlcNAc(b1-2)[Neu5Ac(a2-6)Gal(b1-4)GlcNAc(b1-6)]Man(a1-6)]Man(b1-4)GlcNAc(b1-4)GlcNAc
# How it was run: as §1
# [19] = target: Neu5Ac(a2-6)Gal(b1-4)GlcNAc(b1-2)[Neu5Ac(a2-6)Gal(b1-4)GlcNAc(b1-4)]Man(a1-3)[GlcNAc(b1-4)][Neu5Ac(a2-6)Gal(b1-4)GlcNAc(b1-4)Man(a1-6)]Man(b1-4)GlcNAc(b1-4)GlcNAc
# How it was run: as §1
# [20] = target: Neu5Ac(a2-6)Gal(b1-4)GlcNAc(b1-2)[Neu5Ac(a2-6)Gal(b1-4)GlcNAc(b1-6)]Man(a1-6)[Neu5Ac(a2-6)Gal(b1-4)GlcNAc(b1-2)Man(a1-3)][GlcNAc(b1-4)]Man(b1-4)GlcNAc(b1-4)GlcNAc
# How it was run: as §1
# [21] = target: Neu5Ac(a2-6)Gal(b1-4)GlcNAc(b1-3)Gal(b1-3)GlcNAc
# How it was run: as §1
# [22] = target: Neu5Ac(a2-6)Gal(b1-4)GlcNAc(b1-3)Gal(b1-4)GlcNAc
# How it was run: as §1
# [23] = target: Neu5Ac(a2-6)Gal(b1-4)GlcNAc(b1-3)Gal(b1-4)GlcNAc(b1-2)Man(a1-3)[Neu5Ac(a2-6)Gal(b1-4)GlcNAc(b1-3)Gal(b1-4)GlcNAc(b1-2)Man(a1-6)]GalNAc
# How it was run: as §1
# [24] = target: Neu5Ac(a2-6)Gal(b1-4)GlcNAc(b1-3)Gal(b1-4)GlcNAc(b1-3)Gal(b1-4)GlcNAc
# How it was run: as §1
# [25] = target: Neu5Ac(a2-6)Gal(b1-4)GlcNAc(b1-3)Gal(b1-4)GlcNAc(b1-3)Gal(b1-4)GlcNAc(b1-2)Man(a1-3)[Neu5Ac(a2-6)Gal(b1-4)GlcNAc(b1-3)Gal(b1-4)GlcNAc(b1-3)Gal(b1-4)GlcNAc(b1-2)Man(a1-6)]GalNAc
# How it was run: as §1
# [26] = target: Neu5Ac(a2-6)Gal(b1-4)GlcNAc(b1-3)Gal(b1-4)GlcNAc(b1-3)GalNAc
# How it was run: as §1
# [27] = target: Neu5Ac(a2-6)Gal(b1-4)GlcNAc(b1-3)Gal(b1-4)GlcNAc(b1-3)[Neu5Ac(a2-6)Gal(b1-4)GlcNAc(b1-3)Gal(b1-4)GlcNAc(b1-6)]GalNAc
# How it was run: as §1
# [28] = target: Neu5Ac(a2-6)Gal(b1-4)GlcNAc(b1-3)Gal(b1-4)GlcNAc(b1-6)[Gal(b1-3)]GalNAc
# How it was run: as §1
# [29] = target: Neu5Ac(a2-6)Gal(b1-4)GlcNAc(b1-3)Gal(b1-4)[Fuc(a1-3)]GlcNAc(b1-3)Gal(b1-4)[Fuc(a1-3)]GlcNAc
# How it was run: as §1
# [30] = target: Neu5Ac(a2-6)Gal(b1-4)GlcNAc(b1-3)GalNAc
# How it was run: as §1
# [31] = target: Neu5Ac(a2-6)Gal(b1-4)GlcNAc(b1-3)[Neu5Ac(a2-6)Gal(b1-4)GlcNAc(b1-6)]GalNAc
# How it was run: as §1
# [32] = target: Neu5Ac(a2-6)Gal(b1-4)GlcNAc(b1-6)GalNAc
# How it was run: as §1
# [33] = target: Neu5Ac(a2-6)Gal(b1-4)GlcNAc(b1-6)[Gal(b1-3)GlcNAc(b1-3)]Gal(b1-4)Glc
# How it was run: as §1
# [34] = target: Neu5Ac(a2-6)Gal(b1-4)GlcNAc(b1-6)[Gal(b1-3)]GalNAc
# How it was run: as §1
# [35] = target: Neu5Ac(a2-6)Gal(b1-4)GlcNAc6S
# How it was run: as §1
# [36] = target: Neu5Ac(a2-6)GalNAc
# How it was run: as §1
# [37] = target: Neu5Ac(a2-6)GalNAc(b1-4)GlcNAc
# How it was run: as §1
# [38] = target: Neu5Ac(a2-6)GalNAc(b1-4)GlcNAc6S
# How it was run: as §1
binder,measurement,setting,value
"AT3G44510(29) (Arabidopsis thaliana), F4J341 (protein) MEEHLQGRIKLHDGRYLAYKERGVPKDDAKFTIVLVHGFGSSKDMNFNVSQELVNEIGIYFVLYDRAGYGESDPNPKRSLKSEAYDVQELADGLEIGSRFYLIGISMGSYTVWSCLKHIPQRLAGVAMVAPVVNFRWPSIPKSLMPKDYRREVAKWSVWIANYFPGLLQWLVTQNMFSTTSMLEKNPVYFNDQDIEVLKHIKGFPMLTKEKLRERGVFGTLRSDFLVAFGDWDFDPADLPDPSLSGPEKGSSSVHIWQGYEDKVMPFQLQRCLCRKLPWIRYHEVPKGGHLIVHYDGICDAILKSLLLGEDLPMYKPKAVITEPA",glycan array binding signal (z-score),[1],-0.251
same,glycan array binding signal (z-score),[2],0.32
same,glycan array binding signal (z-score),[3],-0.127
same,glycan array binding signal (z-score),[4],-0.04
same,glycan array binding signal (z-score),[5],0.076
same,glycan array binding signal (z-score),[6],-0.17
same,glycan array binding signal (z-score),[7],0.475
same,glycan array binding signal (z-score),[8],-0.632
same,glycan array binding signal (z-score),[9],-0.438
same,glycan array binding signal (z-score),[10],-0.667
same,glycan array binding signal (z-score),[11],0.086
same,glycan array binding signal (z-score),[12],0.398
same,glycan array binding signal (z-score),[13],-0.482
same,glycan array binding signal (z-score),[14],-0.257
same,glycan array binding signal (z-score),[15],0.119
same,glycan array binding signal (z-score),[16],-0.553
same,glycan array binding signal (z-score),[17],0.633
same,glycan array binding signal (z-score),[18],-0.785
same,glycan array binding signal (z-score),[19],-0.131
same,glycan array binding signal (z-score),[20],-0.036
same,glycan array binding signal (z-score),[21],-0.321
same,glycan array binding signal (z-score),[22],-0.06
same,glycan array binding signal (z-score),[23],-0.18
same,glycan array binding signal (z-score),[24],-0.818
same,glycan array binding signal (z-score),[25],2.59
same,glycan array binding signal (z-score),[26],-0.097
same,glycan array binding signal (z-score),[27],-0.717
same,glycan array binding signal (z-score),[28],-0.695
same,glycan array binding signal (z-score),[29],-0.025
same,glycan array binding signal (z-score),[30],0.206
same,glycan array binding signal (z-score),[31],-0.381
same,glycan array binding signal (z-score),[32],0.464
same,glycan array binding signal (z-score),[33],-0.332
same,glycan array binding signal (z-score),[34],-0.396
same,glycan array binding signal (z-score),[35],-0.464
same,glycan array binding signal (z-score),[36],-0.271
same,glycan array binding signal (z-score),[37],0.107
same,glycan array binding signal (z-score),[38],-0.42

# A different layout for some results above:
binder	measurement	setting	value
AT3G44510(29) (Arabidopsis thaliana), F4J341 (protein) MEEHLQGRIKLHDGRYLAYKERGVPKDDAKFTIVLVHGFGSSKDMNFNVSQELVNEIGIYFVLYDRAGYGESDPNPKRSLKSEAYDVQELADGLEIGSRFYLIGISMGSYTVWSCLKHIPQRLAGVAMVAPVVNFRWPSIPKSLMPKDYRREVAKWSVWIANYFPGLLQWLVTQNMFSTTSMLEKNPVYFNDQDIEVLKHIKGFPMLTKEKLRERGVFGTLRSDFLVAFGDWDFDPADLPDPSLSGPEKGSSSVHIWQGYEDKVMPFQLQRCLCRKLPWIRYHEVPKGGHLIVHYDGICDAILKSLLLGEDLPMYKPKAVITEPA	glycan array binding signal (z-score)	[5]	0.076
same	glycan array binding signal (z-score)	[11]	0.086
same	glycan array binding signal (z-score)	[13]	-0.482
same	glycan array binding signal (z-score)	[23]	-0.18
same	glycan array binding signal (z-score)	[27]	-0.717
same	glycan array binding signal (z-score)	[29]	-0.025
same	glycan array binding signal (z-score)	[34]	-0.396
same	glycan array binding signal (z-score)	[36]	-0.271
same	glycan array binding signal (z-score)	[38]	-0.42

# — the supplement of paper PMC8728848
